These are yes or no findings as the source states them, for the method shown. In cells and extracts the contact can be indirect. A result given as binding can be weak or reduced; the word gives no strength. Sequences can lack the tags named with a protein.
B1: LIKE HETEROCHROMATIN PROTEIN1 (LHP1), BiFC fusion (protein, UniProt Q946J8 1-445)
chain: MKGASGAVKKKPQVLNEAGEAETAVETVGESRKISGDGGFGSDDGGGGGGGGSGESILREIGDDRPTEDGDEEEEEDEDEDDGGDEEDEEGEGEGGQEERPKLDEGFYEIEAIRRKRVRKGKVQYLIKWRGWPETANTWEPLENLQSIADVIDAFEGSLKPGKPGRKRKRKYAGPHSQMKKKQRLTSTSHDATEKSDSSTSLNNSSLPDIPDPLDLSGSSLLNRDVEAKNAYVSNQVEANSGSVGMARQVRLIDNEKEYDPTLNELRGPVNNSNGAGCSQGGGIGSEGDNVRPNGLLKVYPKELDKNSRFIGAKRRKSGSVKRFKQDGSTSNNHTAPTDQNLTPDLTTLDSFGRIARMGNEYPGVMENCNLSQKTKIEELDITKILKPMSFTASVSDNVQEVLVTFLALRSDGKEALVDNRFLKAHNPHLLIEFYEQHLKYNRTP

The chains behind the UniProt entries cited, without tags or fusion partners. Where a name states a change or a piece, a line headed by the entry shows the natural chain unless it says otherwise.
UniProt Q8W4L5: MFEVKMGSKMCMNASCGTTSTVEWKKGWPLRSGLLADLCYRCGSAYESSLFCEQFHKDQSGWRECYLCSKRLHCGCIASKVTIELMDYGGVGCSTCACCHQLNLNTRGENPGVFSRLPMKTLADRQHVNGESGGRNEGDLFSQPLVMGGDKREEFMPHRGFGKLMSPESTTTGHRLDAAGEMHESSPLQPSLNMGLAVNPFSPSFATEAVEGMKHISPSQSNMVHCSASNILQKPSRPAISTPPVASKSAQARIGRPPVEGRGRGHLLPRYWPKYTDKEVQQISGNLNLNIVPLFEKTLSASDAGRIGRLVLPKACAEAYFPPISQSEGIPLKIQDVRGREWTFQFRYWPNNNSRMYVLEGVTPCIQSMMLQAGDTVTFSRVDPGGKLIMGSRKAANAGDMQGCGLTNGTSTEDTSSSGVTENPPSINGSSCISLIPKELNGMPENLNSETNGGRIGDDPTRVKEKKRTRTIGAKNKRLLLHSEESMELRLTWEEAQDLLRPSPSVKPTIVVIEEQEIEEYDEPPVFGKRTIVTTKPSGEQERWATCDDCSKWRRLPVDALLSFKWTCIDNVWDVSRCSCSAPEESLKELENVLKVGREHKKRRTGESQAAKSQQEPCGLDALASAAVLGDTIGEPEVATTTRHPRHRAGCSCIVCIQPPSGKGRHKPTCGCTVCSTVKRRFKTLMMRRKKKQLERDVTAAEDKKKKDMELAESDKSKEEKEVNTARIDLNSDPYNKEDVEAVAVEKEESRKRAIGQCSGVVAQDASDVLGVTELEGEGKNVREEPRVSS

Key:
Test in all cases: split reporter
[1] = molecular target: T1, HSI2-LIKE1 (HSL1), BiFC fusion (Arabidopsis thaliana) (UniProt Q5CCK4)
T1 sequence: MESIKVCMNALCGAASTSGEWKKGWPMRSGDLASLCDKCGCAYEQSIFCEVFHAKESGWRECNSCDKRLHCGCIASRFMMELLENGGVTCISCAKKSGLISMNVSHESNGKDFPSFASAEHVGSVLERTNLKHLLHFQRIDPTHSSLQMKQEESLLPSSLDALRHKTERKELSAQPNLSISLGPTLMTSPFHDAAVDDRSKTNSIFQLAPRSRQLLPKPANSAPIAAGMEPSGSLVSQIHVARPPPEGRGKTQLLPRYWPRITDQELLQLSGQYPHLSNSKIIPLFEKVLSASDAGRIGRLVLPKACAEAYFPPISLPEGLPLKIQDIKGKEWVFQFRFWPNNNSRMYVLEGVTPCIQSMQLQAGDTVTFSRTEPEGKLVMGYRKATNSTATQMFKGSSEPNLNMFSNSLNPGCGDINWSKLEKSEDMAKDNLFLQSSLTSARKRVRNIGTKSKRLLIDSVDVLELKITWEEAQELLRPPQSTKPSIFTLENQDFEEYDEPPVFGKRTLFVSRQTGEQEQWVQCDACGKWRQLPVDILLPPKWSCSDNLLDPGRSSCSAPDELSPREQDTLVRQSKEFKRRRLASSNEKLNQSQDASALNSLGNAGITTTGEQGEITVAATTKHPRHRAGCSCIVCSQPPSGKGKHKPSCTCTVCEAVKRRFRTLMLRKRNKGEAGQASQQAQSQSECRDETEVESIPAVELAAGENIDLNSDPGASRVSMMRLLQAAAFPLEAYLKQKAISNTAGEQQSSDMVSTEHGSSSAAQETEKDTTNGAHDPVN

[2] = molecular target: B3 domain of HSL1 (B3_(HSL1)), BiFC fusion (Arabidopsis thaliana)
[3] = molecular target: B3 domain of HSI2 (B3_(HSI2)), BiFC fusion (Arabidopsis thaliana)

Molecule | binding [1] | binding [2] | binding [3]
HSI2mB3 (HSI2 with a mutated B3 domain), BiFC fusion (from UniProt Q8W4L5) | binds |  | 
B1 |  | binds | binds

Source: paper doi:10.1101/2019.12.20.885392
